Our source for the binding values is paper PMC5972614.

These are yes or no findings as the source states them, for the method shown. For some assays here: In cells and extracts the contact can be indirect. Some binding calls cover weakened binding; strength is not graded here. Sequences can lack the tags named with a protein.

Assay [1] has as its target AtRAF2 (Arabidopsis Rubisco assembly factor 2), GAL4 yeast two-hybrid fusions (AD–AtRAF2; BD fusion) (Arabidopsis) (UniProt Q9LU63). In words: two-hybrid; directed GAL4 yeast two-hybrid (Matchmaker System 3), yeast mating, BD and AD fusions, growth on SD/−WL and SD/−AHLW, 30 °C.
Assay [2] has as its target AtRAF2 BiFC fusions (pSPYNE–35S and pSPYCE–35S) (Arabidopsis) (UniProt Q9LU63). The experiment in a line: split reporter; BiFC with halves of YFP (pSPYNE–35S, pSPYCE–35S) in agro-infiltrated N. benthamiana leaves, confocal microscopy.

B1: AtRAF2 (Arabidopsis Rubisco assembly factor 2), GAL4 yeast two-hybrid fusions (AD–AtRAF2; BD fusion) (protein, UniProt Q9LU63 1-220)
chain: MAATSSSPPCNISASSLLLRQPSRSILKVFGLLPPVSRNNRKLGRLTVTRSNLAQDFLGDFGARDPYPEEIASQFGDKVLGCQSTEHKILIPNASVLSLSQLQCSPVSSSQPPLSGDDARTLLHKVLGWSIVDNEAGGLKIRCMWKVRDFGCGVELINRIHKVAEASGHYPSLHLESPTQVRAELFTSSIGGLSMNDFIMAAKIDDIKTSDLSPRKRAWA
On to B1, for which the binding result in assay [1] is “binds”.

B2: AtRAF2 BiFC fusions (pSPYNE–35S and pSPYCE–35S) (protein, UniProt Q9LU63 51-220)
chain: SNLAQDFLGDFGARDPYPEEIASQFGDKVLGCQSTEHKILIPNASVLSLSQLQCSPVSSSQPPLSGDDARTLLHKVLGWSIVDNEAGGLKIRCMWKVRDFGCGVELINRIHKVAEASGHYPSLHLESPTQVRAELFTSSIGGLSMNDFIMAAKIDDIKTSDLSPRKRAWA
Regarding B2, the binding entry in assay [2] was “binds”.
